# Test results published in patent US10702706B2, “Apparatus, system, and method for generating photo-biologic minimum biofilm inhibitory concentration of infrared light” (NOMIR MEDICAL TECHNOLOGIES, INC., priority 2013, dated 2020).
# For at least one compound, name, drawing or mass did not settle the structure.
# Tested on: MRSA
# Test: In vivo treatment of an MRSA patient with PMBIC followed by oral doxycycline
# Design: species or system human
# Conditions: MRSA patient previously challenged with ciprofloxacin (FIG. 12)
structure (smiles),measurement,value
C[C@H]1c2cccc(O)c2C(=O)C2=C(O)[C@]3(O)C(=O)C(C(N)=O)=C(O)[C@@H](N(C)C)[C@@H]3[C@@H](O)[C@@H]21 [doxycycline],clinical outcome,cured
